From patent publication US20120095185A1, “PROCESS FOR CHELATING COPPER IONS USING CB-TE2A BIFUNCTIONAL CHELATE” (NORDION (CANADA) INC., priority 2010, published 2012)

Assay: Optimisation of Cu-64 radiolabeling of 13a and 13b to >95% radiochemical yield
Conditions: for CB-TE2A BFC (6a/6b) Concentration: concentration required for >95% radiochemical yield; for Temperature (optimized Cu-64 radiolabeling condition): to >95% radiochemical yield
Description: As used herein, the terms “degree of complexation” and “percent complexation” are used interchangeably and are defined to mean the percentage of the ion that is successfully complexed with the bifunctional chelate. Here percent complexation is expressed as radiochemical yield, which is the yield of radiolabeled complex expressed as a fraction of the radioactivity originally present. The value of radiochemical yield obtained when making the ion complexes of the present reaction can be greater than 90% or greater than 95%, as measured by reverse phase chromatography (HPLC).
The conditions required to radiolabel 13a and 13b with Cu-64 in >95% radiochemical yield were optimized for pH, temperature and reaction time (Table 1). The exact same radioisotope lot, buffer solutions, and conditions were used for the reaction and the analysis of both 13a and 13b.
Cu-64 radiolabeled 13a and 13b are distinct species with different retention times by HPLC. The analysis was conducted with a Phenomenex hydrosynergy RPC18 column (4.6×150 mm) using a gradient of 98% trifluoracetic acid in water (0.01% v/v) 2% acetonitrile to 50% trifluoracetic acid in water (0.01% v/v) 50% acetonitrile over 30 min at 1 mL/min.

SMILES | CB-TE2A BFC (6a/6b) Concentration | Temperature (optimized Cu-64 radiolabeling condition)
O=C(O)CN1CCCN2CCN(CCCN(C(CCc3ccc([N+](=O)[O-])cc3)C(=O)O)CC2)CC1 (stereo not shown) [13b] | 50 μM or higher | 80 °C
O=C(O)CN1CCCN2CCN(CCCN(C(CCc3ccc([N+](=O)[O-])cc3)C(=O)O)CC2)CC1 (stereo not shown) [13a] | As low as 6 μM | Room temperature (~20° C.)
